Assay results reported in the supplement of paper PMC12764529.
± gives the half width of the 95% confidence interval. For many entries, trypsin and chymotrypsin gave values far apart.

How the values were obtained:
[1] = folding stability dG unfold from trypsin proteolysis; higher = more stable
Procedure: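 Folding stability of de novo designed mini-proteins (<80 aa, no Cys; designed by TrROS, TrMRF, ProteinMPNN and the joint model) was measured by cDNA display proteolysis with trypsin and chymotrypsin. Each protease was used at 11 concentrations in a threefold dilution series plus a no-protease condition. K50 was inferred by Bayesian fitting of sequencing counts, and dG unfold was derived against a sequence-predicted unfolded-state K50 (Tsuboyama et al. method). Sequences shown include variable-length N-terminal GS-type padding (SAGGSAGG...) inside a display construct carrying a PA tag. Rows were kept only if the AF2 dimer inter-PAE was >15, to exclude likely homo-oligomers.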

[2] = folding stability dG unfold from chymotrypsin proteolysis; higher = more stable
How it was run: (§1)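 Only designs with AlphaFold2 dimer inter-PAE above 15 were retained; each was a mini-protein under 80 residues with no cysteine, in a PA-tagged cDNA display construct. After digestion with trypsin and chymotrypsin and sequencing, K50 was inferred by Bayesian fitting of counts, and unfolding free energy was derived per protease or combined against a sequence-predicted unfolded-state K50 and a shared folded-state K50.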

[3] = folding stability dG unfold (combined trypsin and chymotrypsin); higher = more stable
How it was run: as §1

Sequence	folding stability dG unfold [1] [kcal/mol]	folding stability dG unfold [2] [kcal/mol]	folding stability dG unfold [3] [kcal/mol]
SAGGSAGGSAGGSWIIIPFTFTIKMEFWDPDNPGKPVEMTHKITIYFAIKIPPPPPGDPSAGGSAGGSAGGS [r4_231_TrROS]	2.72 ± 0.16	5.86 ± 0.29	5.35 ± 0.37
SAGGSAGGSAGGSMKITEDPAKGTVTISSTEDNKVVVIPASTLTPEQIRAEAKAAGIKISAGGSAGGSAGGS [r4_49_JUSTAS]	-0.826 ± 0.16	1.2 ± 0.034	0.735 ± 0.11
SAGMVRIEIEIRVKPGEELTEEQKELARELAEELRRLLPPGAKIRVVDVEVEERDGELVIRVTIEIEPPSAG [r5_121_TrROS_Hall]	4.94 ± 0.31	2.5 ± 0.12	4.75 ± 0.42
SAGGSAMPVELAKAAGATKVEEHKENGYLFVTLKGEEEVKVVFKVNKDGTLELVSVTLPEEEVEFPSAGGSA [r15_247_TrMRF]	0.106 ± 0.089	2.3 ± 0.062	1.67 ± 0.25
SAGMMVKITEVKFSESPLIRKNGSSLSTEKVYTATFTFQDEKGNLTPVKATFSSREELEKYVEEILKKSSAG [r14_36_JUSTAS]	0.673 ± 0.045	2.76 ± 0.033	2.3 ± 0.065
SAGGSAGGSAGTVTVTRLPNGEYLVTTTEPVLAPTADGTPVTRTGVTVTTLSPEELAAAASAGGSAGGSAGG [r11_464_JUSTAS]	-0.88 ± 0.56	1.47 ± 0.034	0.966 ± 0.069
SAIEELAKKLAEELGLEVEVVEVEKEGDRVYVRIKVKVDGKLVYVRIEIERVDEEEGKVEIRIVEVEPVSAG [r14_387_TrROS_Hall]	2.93 ± 0.11	5.04 ± 0.13	4.56 ± 0.27
SAGGSAGGSAGEPEKLKPKPKIEVKPLRFTFPVPETGSLVEVEIYEFPDGTVLVRVKFYDSAGGSAGGSAGG [r11_463_TrMRF]	1.72 ± 0.079	4.29 ± 0.098	3.87 ± 0.29
SEYDWIEIEIFFFIDSPEMANEIADIFEELGFNVEVKVWPYPDMYIVEVTIEIPIPPPPPPPEDPEDKKKSA [r9_863_TrROS]	1.15 ± 0.2	4.06 ± 0.41	3.59 ± 0.31
SAGGAEITINVTVTYDPETNVLYIEMTATVYDPETKEFYEVKVRLKLVNGKLYIVSVEIRKLPPPEKSAGGS [r8_384_TrROS_Hall]	2.8 ± 0.099	6.03 ± 0.32	> 6
SAGGSAMTIKIKLPDGKIITIKAKSIEEAIEALKKLTGYEITSVEIVKIDKEKGEIYIKIKIKKKKSAGGSA [r15_447_TrROS_Hall]	2.32 ± 0.12	4.81 ± 0.26	4.09 ± 0.22
SAGGSAGGSSPVVGGTPPVEEVRVVLDLEDPEEAEKAAEEIRERTGYPVEVEIISPEELEEKASAGGSAGGS [r12_766_JUSTAS]	-0.995 ± 0.33	1.66 ± 0.096	1.1 ± 0.17
SAGGSAKIKIIEIDGKLIILEENKDGTIKAYIFNKKTGEIYKITFDKKTGKIVKVEKIKVKPGEKISAGGSA [r15_425_TrROS_Hall]	2.13 ± 0.073	4.75 ± 0.064	4.46 ± 0.16
SAGETTPVLTIEEKEITVGDKKYKVTSITFSFPGSLLTLSTVTTPEPTTITITSLYDPVVGTVVTTVAGSAG [r5_316_JUSTAS]	2.69 ± 0.14	4.77 ± 0.094	4.49 ± 0.18
SPDSPEFKKFLENLEEIEAEIEEIPEHGVVIEKIKLKFKDKELEVVIVTFFDKDGKIIGSLAFINGKLIPKS [r1_274_TrMRF]	1.84 ± 0.11	4.94 ± 0.24	4.33 ± 0.29
SMAEVNVPLTVEYDPKTGKYYATFTIQFPDSTVPVKKEFTDISEIKKFVEELKKKYSEENPDNVRIDIEKSA [r9_1148_JUSTAS]	1.61 ± 0.071	3.73 ± 0.18	3.46 ± 0.32
SAGKIKPGETIKVTIKIYNEDGELVKEEKLEFKSLEEAKKAIEELAKKIAEETGKPVKVEVKIEKVKAKSAG [r5_232_TrROS_Hall]	1.11 ± 0.25	3.82 ± 0.76	2.32 ± 0.69
SAGGSAGGSAGMAPNAPNLRVRVQVFNENGEPIGEIELPAADVEEFARATGLPVRVLEVSSAGGSAGGSAGG [r17_200_TrMRF]	-0.31 ± 0.21	2.43 ± 0.025	2.01 ± 0.088
SAGGMPGFEVIEEIEIEVDGKTYKITVLRNKETNEYIIEIEDEETGEKKTIVVKPGEKIEISAEELKSAGGS [r16_768_TrROS_Hall]	1.82 ± 0.11	4.14 ± 0.048	3.86 ± 0.15
NNMIEITYRIPGMTVEIWISPDDGTIELEIYNPKNGWPVTITMKVKKIDPENGAIVIDIKIRMPPGAKIPPS [r1_234_TrROS]	1.76 ± 0.09	3.98 ± 0.19	2.85 ± 0.42

Sequence	folding stability dG unfold [1] [kcal/mol]	folding stability dG unfold [2] [kcal/mol]	folding stability dG unfold [3] [kcal/mol]
SMVRIYVHPEMSEEERKKAEELIKRILEKLEEGKTIEEIAKEIKEETNLPNVKIVRIEILEPPSEEELKKSA [r9_620_TrROS_Hall]	1.19 ± 0.062	3.33 ± 0.29	2.83 ± 0.45
SFFKNFKIDWKENPNGNFVITFRVGGQPIFTIIFKVVVPPPPVEVPVPDPNGEPRKVRYDPKNGKPETEPSA [r9_343_TrROS]	1.33 ± 0.037	4.04 ± 0.13	3.4 ± 0.23
SAGGSAGGSAGGRVRPGGRVRLRFRFEAPVYRRDPVSGAWTPEGVGEVEFELEVEVPDESAGGSAGGSAGGS [r10_1115_TrMRF]	2.09 ± 0.055	4.26 ± 0.055	3.55 ± 0.093
SAGGSVWEIEYLIPPNETLEDAASWIANEIMEWLQERHGGPFKIDVKPVERPPDDWTYVKVTISFDSAGGSA [r2_214_TrROS]	1.67 ± 0.12	4.1 ± 0.28	3.46 ± 0.31
SAGGSAGGSKVKIVEARKNENGQYVLRVRNEDTGETLELTFESKEDAEAALKALEEAGYTIETSAGGSAGGS [r20_177_TrROS_Hall]	1.52 ± 0.084	4.37 ± 0.087	3.94 ± 0.13
SAGGSAGGSAKTIRIVMSKEDVDKLIEEAKKKGYKVKVEVVKDKNGKEVYVVAEIELPPKESAGGSAGGSAG [r3_149_TrROS_Hall]	1.87 ± 0.069	3.95 ± 0.12	3.58 ± 0.15
SAGGTITIELPDGVKVTITYDKDTGTITITVEVNGKTYVAKAKIVKNKDGSYTIEIEIYSAEELKKASAGGS [r16_85_TrROS_Hall]	1.27 ± 0.032	3.56 ± 0.046	3.1 ± 0.14
SAGGSAGGSGMPPVVTISFSYDPSTNVYTATITYPSGPTYTITFPTSSKSEAEKKAKELVEKKSAGGSAGGS [r12_339_JUSTAS]	1.38 ± 0.11	3.77 ± 0.059	3.27 ± 0.17
SAGGMTIYVPKENVEKVLKELKKKGFKPEKVEKKGDYVVVKFKKKTKDKEYELTIIFLPPDNPENPKSAGGS [r8_307_TrMRF]	1.92 ± 0.053	4.52 ± 0.067	4.32 ± 0.12
SAGSVSVSIEVNEDGTVTITATVTVEVDGKTYTFTATATLKIEPAPPPPPPPKVEYKEVNGKIVEKKVLSAG [r5_169_TrROS_Hall]	1.31 ± 0.35	3.86 ± 0.16	3.43 ± 0.72
SALEVKVEYDPETKTVKVEVTFHFPTVTVKVTFTVTLDGDTLTLSPSVEVLPPVPPLGPELAAKLAEAASAG [r14_930_TrMRF]	1.66 ± 0.071	4.07 ± 0.089	3.64 ± 0.12
SAKKVIKFFDSLEELIEAIEEAASKGEDFEVVFRLPDGSVLHIKVEVDPKTNEIKILEAELRPVSDTDLSAG [r14_455_TrMRF]	1.35 ± 0.076	3.48 ± 0.069	3.04 ± 0.091
SAGGMYIVKVKIVNKETGKTIEITLLVPETEEEALEKARELAKKLGLKDVKVEVEIIEIKEDDPAIKKSAGG [r13_682_TrROS_Hall]	0.371 ± 0.27	3.96 ± 0.14	3.35 ± 0.26
SAGGSAGGSMKKENKPYIKYLVKIELPGPPILDPKIFKSKEEAEKYAKEIAEKYNVKVEVFEESAGGSAGGS [r12_134_TrMRF]	1.25 ± 0.17	3.26 ± 0.096	2.88 ± 0.16
SAMTAEVTFTLPDGTPVRRVFEVPPGDPEAVLERIRAELRAEYPDVPLDWVARLLERSPEGRLLIEVVVSAG [r14_622_JUSTAS]	2.4 ± 0.062	4.443 ± 0.038	3.94 ± 0.086
SAGGSAGGSAGGLATFDDGKVVEFSTLEELEAYLKGVPVKRVRIFDRVKGGEVEVEVNPSAGGSAGGSAGGS [r10_1191_TrMRF]	-0.791 ± 0.21	1.6 ± 0.062	1.12 ± 0.065
SAGKKKKKIKVKIIVNGKEIEIEMTLEELKKLVKEGKLEITDVKVEKGEIYIIIKPKPPEVDKKTGKLKSAG [r5_868_TrROS_Hall]	0.293 ± 0.12	2.42 ± 0.049	1.9 ± 0.12
SPALEIARELAEKNNIKDVDVKVEEQPDPDNGRPWYEAEATFTFPGNGKKYQIKIWFWPNGNFQIDIQPYSA [r9_724_TrROS]	1.56 ± 0.061	3.64 ± 0.079	3.06 ± 0.27
SAGGSAGGSAGAETRTLKPGDYWVVSIRDPVTGKVYTFVVKEDEIEVLNASAYPVAVHEGSAGGSAGGSAGG [r11_741_TrMRF]	0.648 ± 0.058	2.7 ± 0.034	2.35 ± 0.076
SAGGSASSISLPAPDLVTVEEEEVPETTVVRRRAPDGTVLEVTVHPEPVVEVRRPGTGEPVAVRPESAGGSA [r15_656_JUSTAS]	-1.2 ± 0.17	1.458 ± 0.011	0.966 ± 0.031

Single entries from above:
folding stability dG unfold [3] [kcal/mol] with SAGGSVWEIEYLIPPNETLEDAASWIANEIMEWLQERHGGPFKIDVKPVERPPDDWTYVKVTISFDSAGGSA [r2_214_TrROS] is entered as 3.46 ± 0.31
folding stability dG unfold [3] [kcal/mol] with SAGKKKKKIKVKIIVNGKEIEIEMTLEELKKLVKEGKLEITDVKVEKGEIYIIIKPKPPEVDKKTGKLKSAG [r5_868_TrROS_Hall] is entered as 1.9 ± 0.12
